PMC3938566
No constants are given. Whether binding was seen depends on the method and setting. In cells and extracts the contact can be indirect. Some results given as binding are weak or reduced against the parent protein; the word gives no strength.

Chains of the proteins cited; added tags and fusions are not shown.
UniProt P29350: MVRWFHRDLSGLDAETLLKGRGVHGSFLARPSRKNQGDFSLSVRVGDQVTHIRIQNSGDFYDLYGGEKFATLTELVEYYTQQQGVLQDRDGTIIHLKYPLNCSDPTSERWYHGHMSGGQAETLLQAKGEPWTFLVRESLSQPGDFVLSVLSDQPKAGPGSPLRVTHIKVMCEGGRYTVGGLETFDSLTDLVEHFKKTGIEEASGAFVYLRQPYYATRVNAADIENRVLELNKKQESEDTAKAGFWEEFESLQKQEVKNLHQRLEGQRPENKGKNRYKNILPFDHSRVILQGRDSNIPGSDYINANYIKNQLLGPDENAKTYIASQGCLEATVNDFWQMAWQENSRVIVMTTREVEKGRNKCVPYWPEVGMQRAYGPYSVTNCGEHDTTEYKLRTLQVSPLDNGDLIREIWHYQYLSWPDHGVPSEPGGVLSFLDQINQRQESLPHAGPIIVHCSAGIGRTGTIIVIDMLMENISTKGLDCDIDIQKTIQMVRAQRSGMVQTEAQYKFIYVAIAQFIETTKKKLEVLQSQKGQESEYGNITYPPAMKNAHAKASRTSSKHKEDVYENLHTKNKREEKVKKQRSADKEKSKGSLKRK
UniProt Q12809: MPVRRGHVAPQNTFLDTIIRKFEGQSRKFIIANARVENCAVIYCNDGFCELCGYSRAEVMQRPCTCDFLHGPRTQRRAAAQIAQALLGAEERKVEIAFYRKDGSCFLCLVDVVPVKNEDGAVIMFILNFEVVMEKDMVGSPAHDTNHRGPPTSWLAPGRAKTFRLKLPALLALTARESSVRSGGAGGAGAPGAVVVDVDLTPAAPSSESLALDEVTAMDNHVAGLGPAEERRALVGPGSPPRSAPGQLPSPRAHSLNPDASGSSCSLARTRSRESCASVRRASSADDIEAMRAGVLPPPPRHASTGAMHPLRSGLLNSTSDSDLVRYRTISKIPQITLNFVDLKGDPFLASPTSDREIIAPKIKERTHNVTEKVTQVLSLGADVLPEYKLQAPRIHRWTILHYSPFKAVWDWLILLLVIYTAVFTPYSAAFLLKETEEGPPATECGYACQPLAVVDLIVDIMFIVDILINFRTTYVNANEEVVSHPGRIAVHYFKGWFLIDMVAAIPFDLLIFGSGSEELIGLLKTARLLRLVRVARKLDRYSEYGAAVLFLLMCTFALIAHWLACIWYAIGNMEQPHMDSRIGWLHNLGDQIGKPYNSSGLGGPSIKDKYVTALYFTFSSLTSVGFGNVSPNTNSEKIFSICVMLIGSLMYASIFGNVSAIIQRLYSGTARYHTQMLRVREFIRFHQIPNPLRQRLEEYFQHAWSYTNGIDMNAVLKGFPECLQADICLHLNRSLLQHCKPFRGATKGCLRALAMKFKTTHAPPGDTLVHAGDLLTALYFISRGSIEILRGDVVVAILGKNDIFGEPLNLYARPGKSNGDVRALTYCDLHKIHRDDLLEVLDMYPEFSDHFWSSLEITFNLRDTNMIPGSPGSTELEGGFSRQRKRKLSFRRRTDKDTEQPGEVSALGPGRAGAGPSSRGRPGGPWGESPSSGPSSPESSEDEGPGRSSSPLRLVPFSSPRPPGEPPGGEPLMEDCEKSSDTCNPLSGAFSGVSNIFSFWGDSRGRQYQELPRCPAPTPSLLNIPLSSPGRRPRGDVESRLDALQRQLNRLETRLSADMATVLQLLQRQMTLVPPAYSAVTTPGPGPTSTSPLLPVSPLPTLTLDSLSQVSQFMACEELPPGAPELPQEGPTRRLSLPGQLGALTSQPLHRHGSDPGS

Target: SHP-1 tyrosine phosphatase (immunoprecipitated from lysates of hERG-transfected HEK293 cells) (UniProt P29350)
Test: co-IP; lysates (250 µg) of HEK293 cells transfected with wt or ΔITIM hERG, pervanadate-treated (15 min, 37°C); immunoprecipitation with anti-SHP-1 (sc-287) and protein-G beads; blot with anti-hERG

Question: How did the binding turn out when “myc-tagged hERG (wild-type, full-length hERG/Kv11.1/KCNH2 channel) (from UniProt Q12809 1-1159)” was run?
Answer: Its binding is “binds”.
